These are yes or no findings as the source states them, for the method shown. In cells and extracts the contact can be indirect. Some binding calls cover weakened binding; strength is not graded here.
Columns and labels:
[1] = target: mono-ADP-ribosyltransferase ARTD8 (human (endogenous in PC3)) (UniProt Q460N5); experiment: co-IP; endogenous ARTD8 complexes precipitated from PC3 cell extracts with epitope affinity purified anti-ARTD8 antibodies; no ADP-ribose added; immunoblot
[2] = target: diphtheria-toxin-like macrodomain containing ADP-ribosyltransferase-9 (ARTD9) (human (endogenous in PC3)) (UniProt Q8IXQ6); experiment: co-IP; endogenous ARTD9 complexes precipitated from PC3 cell extracts with anti-ARTD9 antibody covalently coupled to tosyl-activated Dynabeads; cells stimulated 1 h with IFNγ (200 U/ml) in Figure 2H and S5E; no ADP-ribose added; immunoblot
[3] = target: diphtheria-toxin-like macrodomain containing ADP-ribosyltransferase-9 (ARTD9) (human (endogenous in PC3)) (UniProt Q8IXQ6); experiment: co-IP; endogenous complexes precipitated from nuclear extracts of PC3 cells with anti-ARTD9 antibodies; immunoblot

The chains behind the UniProt entries cited, without tags or fusion partners.
UniProt Q9UGN5: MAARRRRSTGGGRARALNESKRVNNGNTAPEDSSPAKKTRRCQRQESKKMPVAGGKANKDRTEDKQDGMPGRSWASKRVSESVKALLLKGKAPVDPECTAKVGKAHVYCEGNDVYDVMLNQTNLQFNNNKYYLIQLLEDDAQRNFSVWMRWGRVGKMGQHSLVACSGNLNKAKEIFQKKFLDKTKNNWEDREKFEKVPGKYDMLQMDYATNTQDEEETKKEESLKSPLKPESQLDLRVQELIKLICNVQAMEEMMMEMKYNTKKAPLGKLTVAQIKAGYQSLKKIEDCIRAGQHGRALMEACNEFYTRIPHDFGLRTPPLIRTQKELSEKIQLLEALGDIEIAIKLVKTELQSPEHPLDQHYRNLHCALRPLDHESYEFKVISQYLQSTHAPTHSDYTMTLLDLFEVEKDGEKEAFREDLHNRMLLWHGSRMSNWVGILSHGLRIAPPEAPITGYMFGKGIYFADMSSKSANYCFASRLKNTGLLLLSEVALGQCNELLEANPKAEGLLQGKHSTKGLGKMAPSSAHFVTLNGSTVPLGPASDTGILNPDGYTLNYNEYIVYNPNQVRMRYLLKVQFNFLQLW
UniProt Q9H0J9: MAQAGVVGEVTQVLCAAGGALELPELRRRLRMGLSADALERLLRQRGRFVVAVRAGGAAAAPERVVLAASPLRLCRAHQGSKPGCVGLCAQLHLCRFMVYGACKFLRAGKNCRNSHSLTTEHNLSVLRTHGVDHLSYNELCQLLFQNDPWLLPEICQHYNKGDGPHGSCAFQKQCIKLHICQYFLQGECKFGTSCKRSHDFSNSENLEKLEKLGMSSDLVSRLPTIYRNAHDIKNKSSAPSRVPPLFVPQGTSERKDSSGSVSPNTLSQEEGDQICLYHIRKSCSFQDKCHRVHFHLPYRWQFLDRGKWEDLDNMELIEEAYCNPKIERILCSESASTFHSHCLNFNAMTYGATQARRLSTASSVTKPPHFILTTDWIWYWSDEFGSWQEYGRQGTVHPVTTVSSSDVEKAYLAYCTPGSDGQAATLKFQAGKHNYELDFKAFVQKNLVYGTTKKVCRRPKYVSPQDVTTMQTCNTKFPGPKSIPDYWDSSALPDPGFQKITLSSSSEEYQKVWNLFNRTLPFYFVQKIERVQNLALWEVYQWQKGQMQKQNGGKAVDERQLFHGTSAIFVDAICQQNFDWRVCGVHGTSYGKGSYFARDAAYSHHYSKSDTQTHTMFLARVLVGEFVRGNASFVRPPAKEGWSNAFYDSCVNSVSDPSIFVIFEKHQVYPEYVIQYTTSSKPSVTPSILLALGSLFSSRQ
UniProt Q7Z2W4: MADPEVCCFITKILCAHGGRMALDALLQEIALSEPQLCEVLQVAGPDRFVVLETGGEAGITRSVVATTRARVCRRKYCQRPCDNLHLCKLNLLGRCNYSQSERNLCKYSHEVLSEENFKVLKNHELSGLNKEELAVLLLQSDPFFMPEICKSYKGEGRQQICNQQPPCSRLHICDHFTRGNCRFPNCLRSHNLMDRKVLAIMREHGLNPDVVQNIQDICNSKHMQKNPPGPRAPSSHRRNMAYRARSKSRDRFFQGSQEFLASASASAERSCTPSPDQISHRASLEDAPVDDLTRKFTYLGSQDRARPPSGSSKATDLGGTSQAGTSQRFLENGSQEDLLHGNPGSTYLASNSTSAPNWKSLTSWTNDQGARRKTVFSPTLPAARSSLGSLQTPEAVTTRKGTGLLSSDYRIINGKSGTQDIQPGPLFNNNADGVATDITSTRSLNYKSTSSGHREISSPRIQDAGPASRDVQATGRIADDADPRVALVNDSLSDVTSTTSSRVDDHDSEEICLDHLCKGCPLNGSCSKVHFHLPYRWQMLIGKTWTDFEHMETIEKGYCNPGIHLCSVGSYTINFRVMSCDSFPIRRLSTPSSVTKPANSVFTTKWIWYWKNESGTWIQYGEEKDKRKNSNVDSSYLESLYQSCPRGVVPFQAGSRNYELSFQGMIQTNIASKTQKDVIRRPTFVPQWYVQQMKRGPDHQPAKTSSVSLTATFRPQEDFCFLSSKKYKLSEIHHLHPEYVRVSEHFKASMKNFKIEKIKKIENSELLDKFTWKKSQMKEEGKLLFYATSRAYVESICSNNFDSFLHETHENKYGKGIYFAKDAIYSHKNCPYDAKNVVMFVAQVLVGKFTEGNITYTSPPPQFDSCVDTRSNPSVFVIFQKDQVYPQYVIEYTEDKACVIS
UniProt P42224: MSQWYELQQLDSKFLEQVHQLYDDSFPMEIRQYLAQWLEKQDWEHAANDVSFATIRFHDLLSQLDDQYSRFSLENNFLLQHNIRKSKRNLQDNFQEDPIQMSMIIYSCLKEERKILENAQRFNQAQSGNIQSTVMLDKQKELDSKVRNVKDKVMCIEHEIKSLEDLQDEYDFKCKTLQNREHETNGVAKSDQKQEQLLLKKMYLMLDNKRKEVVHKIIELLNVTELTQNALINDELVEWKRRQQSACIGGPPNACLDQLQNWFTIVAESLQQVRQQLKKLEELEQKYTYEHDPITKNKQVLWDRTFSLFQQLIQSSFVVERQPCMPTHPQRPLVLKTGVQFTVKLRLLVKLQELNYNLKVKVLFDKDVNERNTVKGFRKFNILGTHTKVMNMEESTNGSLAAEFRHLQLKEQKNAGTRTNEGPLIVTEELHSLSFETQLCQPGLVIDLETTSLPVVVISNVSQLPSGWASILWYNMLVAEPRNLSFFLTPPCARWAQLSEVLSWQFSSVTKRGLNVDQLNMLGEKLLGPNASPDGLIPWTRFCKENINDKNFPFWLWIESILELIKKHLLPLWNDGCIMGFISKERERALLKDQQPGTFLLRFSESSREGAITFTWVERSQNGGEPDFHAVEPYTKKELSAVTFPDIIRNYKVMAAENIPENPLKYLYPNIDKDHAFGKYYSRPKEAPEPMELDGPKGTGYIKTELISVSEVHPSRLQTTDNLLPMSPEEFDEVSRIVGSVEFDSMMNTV

| Substance | binding [1] | binding [2] | binding [3] |
| --- | --- | --- | --- |
| ARTD1 (from UniProt P09874 1-1014) | binds | binds weakly |  |
| ARTD2 (from UniProt Q9UGN5 1-583) |  | no binding |  |
| ARTD12 (from UniProt Q9H0J9 1-701) |  | binds |  |
| ARTD13 (from UniProt Q7Z2W4 1-902) |  | binds |  |
| STAT1 (from UniProt P42224 1-750) |  |  | binds |
| diphtheria-toxin-like macrodomain containing ADP-ribosyltransferase-9 (ARTD9) (from UniProt Q8IXQ6 1-854) (other; other documents disagree on this pair) | binds |  |  |

Reference: publication PMC4070648
